Reference: PubChem BioAssay AID1259254 (NCATS, 2017)
The whole screen tested about 59,000 reagents; this is an unselected part. Over the whole deposit, about 1,550 (2.6%) are marked active. 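G2 share is only a proxy for re-replication; each gene was hit by three separate siRNAs, and active genes were retested.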 Entries without a mark were called inactive. Reagents against one gene are numbered here. Not all columns of the deposit are shown. The record does not give: the amount of reagent.

- Assay: 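Finding genes that stop cells copying their DNA twice in one cycle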 (primary screen)
- System: human HCT116 colorectal cancer cells
- Reagent: single siRNA against human genes
- Duration: 3 days
- Detection: 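Imaged Hoechst DNA stain sorts each cell into a cycle phase by DNA amount; per plate, G2 fraction set to 0% for non-targeting and 100% for GMNN siRNA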
- Direction: G2 robust z-score: higher = more G2 cells, more excess DNA replication
- Rule for the call: 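Active siRNAs have a G2 robust z of 5 or more median absolute deviations over the median, which in these data means about 38% or higher of GMNN control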

G2 robust z-score, by target gene and reagent
SEC16A (SEC16 homolog A, endoplasmic reticulum export factor): #1 -0.561; #2 -0.574; #3 -0.486
LAD1 (ladinin 1): #1 -0.637; #2 1.3; #3 2
THSD7A (thrombospondin type 1 domain containing 7A): #1 -0.275; #2 2.24; #3 -0.199
RPRML (reprimo like): #1 -0.673; #2 0.262; #3 0.549
BNC2 (basonuclin zinc finger protein 2): #1 -0.285; #2 -0.788; #3 -0.147
LINC02245 (long independently transcribed non-coding RNA 2245): #1 6.16 (active); #2 0.367; #3 -0.553
CCDC34 (coiled-coil domain containing 34): #1 0.0221; #2 -0.122; #3 0.952
TRIAP1 (TP53 regulated inhibitor of apoptosis 1): #1 0.508; #2 -0.955; #3 -1.08

6 of these entries, reformatted.
Target gene | reagent | G2 robust z-score
RPRML (reprimo like) | 2 | 0.262
RPRML (reprimo like) | 3 | 0.549
BNC2 (basonuclin zinc finger protein 2) | 1 | -0.285
BNC2 (basonuclin zinc finger protein 2) | 2 | -0.788
BNC2 (basonuclin zinc finger protein 2) | 3 | -0.147
LINC02245 (long independently transcribed non-coding RNA 2245) | 1 | 6.16 (active)

Next reagents follow:
G2 robust z-score, by target gene and reagent
LINC00851 (long independently transcribed non-coding RNA 851): #1 0.196; #2 0.175; #3 1.66
CCDC88B (coiled-coil and HOOK domain protein 88B): #1 -0.054; #2 -0.147; #3 1.02
TACR3 (tachykinin receptor 3): #1 2.52; #2 -0.263; #3 2.95
DIP2C (DIP2 acetate--CoA ligase C (putative)): #1 -0.869; #2 -0.0578; #3 -0.222
NUCLEOLIN (nucleolin multifunctional protein): #1 -0.567; #2 -0.981; #3 2.26
PEA15 (proliferation and apoptosis adaptor protein 15): #1 0.721; #2 3.19; #3 -0.278
HLA-B (major histocompatibility complex, class I, B): #1 1.38; #2 -0.345; #3 0.325; #4 -0.597; #5 -0.459; #6 -0.463
